Our source for the binding values is patent US20240262905A1.

By UniProt entry, the sequences of proteins in these tests, tags left out. Residues count along the entry.
UniProt P32926, residues 50-615: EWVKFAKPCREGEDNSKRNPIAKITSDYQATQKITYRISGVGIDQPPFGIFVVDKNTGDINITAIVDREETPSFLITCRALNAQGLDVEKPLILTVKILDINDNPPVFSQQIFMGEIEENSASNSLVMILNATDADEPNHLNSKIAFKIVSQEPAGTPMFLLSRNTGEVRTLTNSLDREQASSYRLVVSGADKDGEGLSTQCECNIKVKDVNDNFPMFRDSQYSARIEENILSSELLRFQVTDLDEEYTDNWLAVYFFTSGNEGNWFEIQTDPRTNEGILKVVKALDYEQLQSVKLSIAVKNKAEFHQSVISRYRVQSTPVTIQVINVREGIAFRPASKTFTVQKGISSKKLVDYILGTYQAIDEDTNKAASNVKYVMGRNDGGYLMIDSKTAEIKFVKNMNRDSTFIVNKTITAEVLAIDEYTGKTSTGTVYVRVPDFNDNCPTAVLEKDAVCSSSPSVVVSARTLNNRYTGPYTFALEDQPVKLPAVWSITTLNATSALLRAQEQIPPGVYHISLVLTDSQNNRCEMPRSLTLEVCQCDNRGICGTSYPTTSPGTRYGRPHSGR

Results are given in words; binding and its absence hold for the method and conditions named. Some results given as binding are weak or reduced against the parent protein; the word gives no strength.

This experiment addresses human DSG-3 (human) (UniProt P32926). Briefly: bridging ELISA, plate coated with hDSG-3, his-tagged hCD25, anti-His-HRP detection. Background: An ELISA detects its analyte on a solid surface through an enzyme-linked reagent.

For IL2DSGAB2 (from UniProt P0DOX7 1-214), the binding entry is “binds”.
